The other results are listed elsewhere or left out.
Columns and labels:
Assay in all cases: log2 fold change, soluble protein after heating vs DMSO (PISA); higher = thermal stabilisation; K562 lysate, 10 uM; active = over 0.2 and 3.5 SD of the protein, either way, in both replicates (recomputed)
lapatinib = compound: CS(=O)(=O)CCNCc1ccc(-c2ccc3ncnc(Nc4ccc(OCc5cccc(F)c5)c(Cl)c4)c3c2)o1 [lapatinib]
Outline: (§1)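 Soluble protein was defined as the supernatant remaining after 21,000xg for 90 min, following pooling of heated aliquots and adjustment to 0.5% NP-40 at 4°C. Before that, crude K562 extract at 1 mg/mL protein in PBS pH 7.4 with 1 mM MgCl2 was treated with 10 μM compound for 30 min and heated for 3 min across 48°C-58°C. Quantification used TMTpro 16plex LC-MS/MS with channel sums equalised, and values are log-two fold changes in thermal stability relative to solvent controls from duplicates.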

By UniProt entry, the sequences of proteins in these tests, tags left out. Where a name states a change or a piece, a line headed by the entry shows the natural chain unless it says otherwise.
UniProt Q32P44: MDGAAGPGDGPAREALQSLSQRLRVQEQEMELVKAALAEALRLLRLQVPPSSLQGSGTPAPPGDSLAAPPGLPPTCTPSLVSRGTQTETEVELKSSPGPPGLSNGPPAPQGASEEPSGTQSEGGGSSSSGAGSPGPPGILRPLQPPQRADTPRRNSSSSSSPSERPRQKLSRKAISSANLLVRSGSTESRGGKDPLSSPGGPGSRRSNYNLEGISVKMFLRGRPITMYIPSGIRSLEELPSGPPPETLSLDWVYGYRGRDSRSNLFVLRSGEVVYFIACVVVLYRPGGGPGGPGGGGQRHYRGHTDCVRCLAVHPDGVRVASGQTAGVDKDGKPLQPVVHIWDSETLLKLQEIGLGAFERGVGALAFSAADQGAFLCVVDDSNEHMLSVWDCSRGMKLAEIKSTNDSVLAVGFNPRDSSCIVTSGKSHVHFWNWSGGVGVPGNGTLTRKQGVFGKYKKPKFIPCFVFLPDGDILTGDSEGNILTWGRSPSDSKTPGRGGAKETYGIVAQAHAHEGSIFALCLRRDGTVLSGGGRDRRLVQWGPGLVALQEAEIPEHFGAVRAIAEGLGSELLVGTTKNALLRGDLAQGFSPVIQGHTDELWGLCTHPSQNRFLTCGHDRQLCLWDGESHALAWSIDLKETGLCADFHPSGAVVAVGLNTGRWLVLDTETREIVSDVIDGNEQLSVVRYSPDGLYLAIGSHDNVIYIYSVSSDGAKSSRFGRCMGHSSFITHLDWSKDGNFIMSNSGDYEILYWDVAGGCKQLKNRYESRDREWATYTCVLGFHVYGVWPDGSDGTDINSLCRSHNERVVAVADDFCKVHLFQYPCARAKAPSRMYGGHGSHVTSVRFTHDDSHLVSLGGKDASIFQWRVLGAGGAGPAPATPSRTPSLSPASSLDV
UniProt Q96L91, whole entry, looked up: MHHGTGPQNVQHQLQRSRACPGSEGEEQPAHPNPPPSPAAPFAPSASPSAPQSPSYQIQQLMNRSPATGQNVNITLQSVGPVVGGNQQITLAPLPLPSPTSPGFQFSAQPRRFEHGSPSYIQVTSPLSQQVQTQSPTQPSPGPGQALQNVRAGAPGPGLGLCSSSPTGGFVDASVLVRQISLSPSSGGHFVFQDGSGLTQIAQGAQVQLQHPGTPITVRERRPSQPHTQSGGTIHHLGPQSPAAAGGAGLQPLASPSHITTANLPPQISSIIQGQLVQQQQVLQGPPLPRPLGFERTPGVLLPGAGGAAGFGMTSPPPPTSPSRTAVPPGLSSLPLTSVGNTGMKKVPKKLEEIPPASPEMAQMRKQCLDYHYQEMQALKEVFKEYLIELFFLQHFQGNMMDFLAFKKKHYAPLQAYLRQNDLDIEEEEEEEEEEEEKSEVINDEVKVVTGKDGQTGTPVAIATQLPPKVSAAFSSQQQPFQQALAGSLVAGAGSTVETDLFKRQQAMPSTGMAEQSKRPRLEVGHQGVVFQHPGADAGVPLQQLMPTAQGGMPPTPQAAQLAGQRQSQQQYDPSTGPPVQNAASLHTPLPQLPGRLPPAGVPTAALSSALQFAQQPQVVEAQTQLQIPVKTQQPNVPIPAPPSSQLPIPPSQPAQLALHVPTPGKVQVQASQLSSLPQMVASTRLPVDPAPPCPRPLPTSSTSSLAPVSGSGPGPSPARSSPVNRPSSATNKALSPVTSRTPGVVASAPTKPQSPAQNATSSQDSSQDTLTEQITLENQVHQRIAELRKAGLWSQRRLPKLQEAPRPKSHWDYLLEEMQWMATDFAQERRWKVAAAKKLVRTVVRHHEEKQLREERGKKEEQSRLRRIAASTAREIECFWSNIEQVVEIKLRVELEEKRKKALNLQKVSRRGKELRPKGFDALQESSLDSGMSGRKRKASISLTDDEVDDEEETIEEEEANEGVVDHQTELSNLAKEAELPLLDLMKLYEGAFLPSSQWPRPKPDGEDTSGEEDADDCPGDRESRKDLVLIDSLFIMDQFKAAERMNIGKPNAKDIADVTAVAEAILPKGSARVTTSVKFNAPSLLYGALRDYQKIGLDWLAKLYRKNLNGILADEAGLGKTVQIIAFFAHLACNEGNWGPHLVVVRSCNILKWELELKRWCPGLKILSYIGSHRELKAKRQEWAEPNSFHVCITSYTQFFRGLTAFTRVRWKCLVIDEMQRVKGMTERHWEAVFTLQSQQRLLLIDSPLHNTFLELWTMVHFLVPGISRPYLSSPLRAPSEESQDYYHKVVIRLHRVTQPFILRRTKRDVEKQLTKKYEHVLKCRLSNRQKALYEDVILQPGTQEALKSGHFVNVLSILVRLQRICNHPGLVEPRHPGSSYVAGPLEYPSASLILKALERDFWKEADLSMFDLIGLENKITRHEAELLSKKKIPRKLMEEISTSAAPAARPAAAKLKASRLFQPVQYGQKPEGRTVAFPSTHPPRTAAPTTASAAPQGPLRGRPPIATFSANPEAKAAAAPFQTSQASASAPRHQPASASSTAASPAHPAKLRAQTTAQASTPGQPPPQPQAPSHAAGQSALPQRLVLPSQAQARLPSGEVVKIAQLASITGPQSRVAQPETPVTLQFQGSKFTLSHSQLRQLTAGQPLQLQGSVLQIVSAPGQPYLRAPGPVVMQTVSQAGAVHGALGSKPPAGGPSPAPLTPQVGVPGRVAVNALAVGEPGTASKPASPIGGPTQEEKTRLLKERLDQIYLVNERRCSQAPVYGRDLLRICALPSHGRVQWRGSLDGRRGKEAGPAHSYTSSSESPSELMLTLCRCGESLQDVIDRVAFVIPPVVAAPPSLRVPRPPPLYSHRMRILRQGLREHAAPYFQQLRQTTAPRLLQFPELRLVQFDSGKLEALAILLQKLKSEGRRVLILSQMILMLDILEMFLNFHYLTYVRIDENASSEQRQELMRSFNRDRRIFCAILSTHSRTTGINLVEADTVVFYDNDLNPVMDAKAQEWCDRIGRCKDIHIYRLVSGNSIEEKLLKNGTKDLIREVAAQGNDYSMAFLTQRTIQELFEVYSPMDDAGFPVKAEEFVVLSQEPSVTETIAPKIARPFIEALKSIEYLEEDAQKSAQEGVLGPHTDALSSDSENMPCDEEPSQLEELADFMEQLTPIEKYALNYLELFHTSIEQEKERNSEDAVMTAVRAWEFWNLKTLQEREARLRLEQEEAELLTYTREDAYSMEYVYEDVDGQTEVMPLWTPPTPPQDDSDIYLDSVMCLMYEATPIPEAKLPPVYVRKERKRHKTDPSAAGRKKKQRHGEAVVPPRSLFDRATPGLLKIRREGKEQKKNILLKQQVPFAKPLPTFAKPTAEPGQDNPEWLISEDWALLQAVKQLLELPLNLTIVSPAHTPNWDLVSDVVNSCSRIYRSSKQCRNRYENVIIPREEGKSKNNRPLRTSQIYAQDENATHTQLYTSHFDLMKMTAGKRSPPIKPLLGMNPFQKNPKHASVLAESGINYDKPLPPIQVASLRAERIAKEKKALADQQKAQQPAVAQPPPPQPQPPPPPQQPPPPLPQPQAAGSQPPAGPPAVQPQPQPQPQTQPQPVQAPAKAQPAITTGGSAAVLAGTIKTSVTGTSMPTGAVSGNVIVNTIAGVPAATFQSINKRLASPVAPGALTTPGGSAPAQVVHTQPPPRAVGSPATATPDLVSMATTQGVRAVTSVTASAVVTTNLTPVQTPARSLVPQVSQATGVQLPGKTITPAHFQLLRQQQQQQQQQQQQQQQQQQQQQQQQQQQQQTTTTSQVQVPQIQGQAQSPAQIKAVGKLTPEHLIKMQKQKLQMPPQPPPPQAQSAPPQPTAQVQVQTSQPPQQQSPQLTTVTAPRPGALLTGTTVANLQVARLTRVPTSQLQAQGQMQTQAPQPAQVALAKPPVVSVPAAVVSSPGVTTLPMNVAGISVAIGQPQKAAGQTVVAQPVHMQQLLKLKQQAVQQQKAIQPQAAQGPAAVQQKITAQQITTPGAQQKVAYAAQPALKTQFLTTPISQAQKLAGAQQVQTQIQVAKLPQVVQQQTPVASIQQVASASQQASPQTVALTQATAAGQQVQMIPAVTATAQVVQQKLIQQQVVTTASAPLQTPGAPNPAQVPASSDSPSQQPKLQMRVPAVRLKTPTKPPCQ
UniProt P42566: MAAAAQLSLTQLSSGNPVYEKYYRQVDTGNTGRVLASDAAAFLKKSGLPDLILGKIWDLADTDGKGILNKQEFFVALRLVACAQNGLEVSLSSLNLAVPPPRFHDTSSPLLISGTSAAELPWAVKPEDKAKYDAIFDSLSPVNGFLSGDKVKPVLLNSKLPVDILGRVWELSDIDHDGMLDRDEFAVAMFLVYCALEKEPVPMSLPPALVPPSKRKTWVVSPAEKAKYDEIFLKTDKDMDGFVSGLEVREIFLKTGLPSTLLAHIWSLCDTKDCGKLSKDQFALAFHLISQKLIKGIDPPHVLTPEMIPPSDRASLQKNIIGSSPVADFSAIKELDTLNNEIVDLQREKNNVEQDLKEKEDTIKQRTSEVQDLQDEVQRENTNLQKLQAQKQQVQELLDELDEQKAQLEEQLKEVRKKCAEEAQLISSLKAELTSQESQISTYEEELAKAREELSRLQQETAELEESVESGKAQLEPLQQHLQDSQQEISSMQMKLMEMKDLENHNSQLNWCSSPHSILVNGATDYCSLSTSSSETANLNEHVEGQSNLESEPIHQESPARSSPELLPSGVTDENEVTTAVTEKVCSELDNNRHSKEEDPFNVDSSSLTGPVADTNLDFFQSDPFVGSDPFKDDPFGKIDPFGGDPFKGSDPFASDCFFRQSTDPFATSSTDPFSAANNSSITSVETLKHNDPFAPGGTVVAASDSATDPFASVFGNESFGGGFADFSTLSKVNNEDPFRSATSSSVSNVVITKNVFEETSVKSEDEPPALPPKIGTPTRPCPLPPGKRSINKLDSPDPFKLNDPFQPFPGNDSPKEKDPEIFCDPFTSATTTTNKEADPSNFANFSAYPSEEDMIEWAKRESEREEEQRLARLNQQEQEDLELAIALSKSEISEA
UniProt Q96RQ1: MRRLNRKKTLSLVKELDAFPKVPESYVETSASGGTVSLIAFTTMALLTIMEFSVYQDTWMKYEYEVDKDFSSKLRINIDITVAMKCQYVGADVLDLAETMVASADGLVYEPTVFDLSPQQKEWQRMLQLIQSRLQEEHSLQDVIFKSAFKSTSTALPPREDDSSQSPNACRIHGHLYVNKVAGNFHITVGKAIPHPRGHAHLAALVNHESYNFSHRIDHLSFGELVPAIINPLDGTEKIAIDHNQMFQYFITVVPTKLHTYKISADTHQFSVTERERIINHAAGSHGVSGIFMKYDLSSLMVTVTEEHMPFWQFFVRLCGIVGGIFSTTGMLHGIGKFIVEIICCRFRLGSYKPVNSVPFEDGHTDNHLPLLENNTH
UniProt O94919: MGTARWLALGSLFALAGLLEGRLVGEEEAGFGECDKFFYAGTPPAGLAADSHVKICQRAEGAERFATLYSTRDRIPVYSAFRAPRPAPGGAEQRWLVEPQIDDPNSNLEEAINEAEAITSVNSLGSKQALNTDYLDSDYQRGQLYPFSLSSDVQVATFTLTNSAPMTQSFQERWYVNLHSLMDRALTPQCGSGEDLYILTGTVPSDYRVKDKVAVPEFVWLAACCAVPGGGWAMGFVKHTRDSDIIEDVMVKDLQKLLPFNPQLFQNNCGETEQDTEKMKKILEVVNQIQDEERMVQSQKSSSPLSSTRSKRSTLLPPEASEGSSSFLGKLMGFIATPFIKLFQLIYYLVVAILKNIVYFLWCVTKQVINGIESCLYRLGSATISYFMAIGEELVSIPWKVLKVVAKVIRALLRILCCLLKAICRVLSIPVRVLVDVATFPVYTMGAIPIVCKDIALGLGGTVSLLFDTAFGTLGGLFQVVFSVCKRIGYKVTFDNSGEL
UniProt Q13541: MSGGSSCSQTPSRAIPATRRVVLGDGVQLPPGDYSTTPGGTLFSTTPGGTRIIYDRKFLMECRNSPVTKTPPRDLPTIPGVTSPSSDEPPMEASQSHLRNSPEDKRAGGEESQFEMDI
UniProt O75821, whole entry, looked up: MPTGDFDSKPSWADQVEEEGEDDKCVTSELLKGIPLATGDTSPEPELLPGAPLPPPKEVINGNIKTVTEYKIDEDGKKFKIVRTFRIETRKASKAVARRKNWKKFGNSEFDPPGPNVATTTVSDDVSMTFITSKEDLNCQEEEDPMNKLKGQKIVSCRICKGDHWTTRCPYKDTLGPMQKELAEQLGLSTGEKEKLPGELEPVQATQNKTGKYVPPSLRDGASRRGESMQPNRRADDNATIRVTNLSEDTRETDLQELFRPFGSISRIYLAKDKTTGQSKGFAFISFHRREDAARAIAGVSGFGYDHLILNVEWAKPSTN
UniProt O43768: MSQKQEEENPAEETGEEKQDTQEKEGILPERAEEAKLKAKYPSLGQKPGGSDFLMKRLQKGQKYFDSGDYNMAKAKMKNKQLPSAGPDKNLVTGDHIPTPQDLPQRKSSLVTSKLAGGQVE

pictilisib = compound: CS(=O)(=O)N1CCN(Cc2cc3nc(-c4cccc5[nH]ncc45)nc(N4CCOCC4)c3s2)CC1 [pictilisib]
Outline: as §1

crizotinib = compound: C[C@@H](Oc1cc(-c2cnn(C3CCNCC3)c2)cnc1N)c1c(Cl)ccc(F)c1Cl [crizotinib]
Outline: as §1

[1] = compound: C[C@H](C1=CC=C(C=C1)C(=O)NC2=C3C=CNC3=NC=C2)N
Outline: as §1

duvelisib = compound: C[C@H](Nc1ncnc2nc[nH]c12)c1cc2cccc(Cl)c2c(=O)n1-c1ccccc1 [duvelisib]
Outline: as §1

gandotinib = compound: Cc1cc(Nc2cc(CN3CCOCC3)c3nc(C)c(Cc4ccc(Cl)cc4F)n3n2)n[nH]1 [gandotinib]
Outline: as §1

tozasertib = compound: Cc1cc(Nc2cc(N3CCN(C)CC3)nc(Sc3ccc(NC(=O)C4CC4)cc3)n2)n[nH]1 [tozasertib]
Outline: as §1

doramapimod = compound: Cc1ccc(-n2nc(C(C)(C)C)cc2NC(=O)Nc2ccc(OCCN3CCOCC3)c3ccccc23)cc1 [doramapimod]
Outline: as §1

bafetinib = compound: Cc1ccc(NC(=O)c2ccc(CN3CC[C@H](N(C)C)C3)c(C(F)(F)F)c2)cc1Nc1nccc(-c2cncnc2)n1 [bafetinib]
Outline: as §1

[2] = compound: Cc1cccc(CC(=O)N2CCc3c2ccc(-c2cn(C)c4ncnc(N)c24)c3F)n1
Outline: as §1

nilotinib = compound: Cc1cn(-c2cc(NC(=O)c3ccc(C)c(Nc4nccc(-c5cccnc5)n4)c3)cc(C(F)(F)F)c2)cn1 [nilotinib]
Outline: as §1

[3] = compound: Cc1nc(Nc2n[nH]c3c2CN(C(=O)N[C@H](CN(C)C)c2ccccc2)C3(C)C)c2sccc2n1
Outline: as §1

dasatinib = compound: Cc1nc(Nc2ncc(C(=O)Nc3c(C)cccc3Cl)s2)cc(N2CCN(CCO)CC2)n1 [dasatinib]
Outline: as §1

[4] = compound: Cc1ncc(-c2ccnc(Nc3ccc(S(C)(=O)=O)cc3)n2)n1C(C)C
Outline: as §1

[5] = compound: Cn1cc(-c2ccc3c(c2)CCN3C(=O)Cc2cccc(C(F)(F)F)c2)c2c(N)ncnc21
Outline: as §1

quisinostat = compound: Cn1cc(CNCC2CCN(c3ncc(C(=O)NO)cn3)CC2)c2ccccc21 [quisinostat]
Outline: as §1

tipifarnib = compound: Cn1cncc1[C@@](N)(c1ccc(Cl)cc1)c1ccc2c(c1)c(-c1cccc(Cl)c1)cc(=O)n2C [tipifarnib]
Outline: as §1

[6] = compound: NC(=O)Nc1cc(-c2cccc(F)c2)sc1C(=O)N[C@H]1CCCNC1
Outline: as §1

[7] = compound: NC(=O)c1cnc(N[C@@H]2CCCC[C@@H]2N)nc1Nc1cccc(-n2nccn2)c1
Outline: as §1

[8] = compound: NC1(c2ccc(-c3nc4ccn5c(=O)[nH]nc5c4cc3-c3ccccc3)cc2)CCC1
Outline: as §1

Measured: log2 fold change

EML3 (UniProt Q32P44)
inactive: lapatinib -0.015 | pictilisib -0.003 | crizotinib 0.002 | [1] -0.037 | duvelisib -0.024 | gandotinib 0.029 | tozasertib 0.002 | doramapimod 0.028 | bafetinib -0.035 | [2] 0.028 | nilotinib -0.008 | [3] 0.021 | dasatinib 0.005 | [4] -0.041 | [5] -0.013 | quisinostat -0.012 | tipifarnib -0.007 | [6] 0.005 | [7] 0.006 | [8] 0.013

EP400 isoform 5 (UniProt Q96L91)
inactive: lapatinib 0.052 | pictilisib -0.068 | crizotinib -0.04 | [1] -0.018 | duvelisib -0.036 | gandotinib -0.012 | tozasertib -0.041 | doramapimod 0.02 | bafetinib -0.053 | [2] -0.011 | nilotinib -0.05 | [3] -0.04 | dasatinib 0.001 | [4] -0.025 | [5] -0.005 | quisinostat -0.014 | tipifarnib 0.04 | [6] 0.012 | [7] 0.019 | [8] -0.003

EPS15 (UniProt P42566)
inactive: lapatinib 0.007 | pictilisib -0.016 | crizotinib 0.022 | [1] -0.015 | duvelisib 0.016 | gandotinib -0.004 | tozasertib -0.007 | doramapimod -0.015 | bafetinib -0.011 | [2] 0.003 | nilotinib -0.014 | [3] 0.01 | dasatinib 0.037 | [4] -0.002 | [5] 0.028 | quisinostat 0.036 | tipifarnib -0.014 | [6] -0.04 | [7] -0.022 | [8] -0.003

ERGIC2 (UniProt Q96RQ1)
inactive: lapatinib -0.05 | pictilisib -0.031 | crizotinib -0.015 | [1] 0.074 | duvelisib -0.038 | gandotinib -0.132 | tozasertib 0.028 | doramapimod 0.018 | bafetinib -0.078 | [2] 0.012 | nilotinib 0.007 | [3] -0.033 | dasatinib 0.131 | [4] 0.019 | [5] 0.06 | quisinostat 0.046 | tipifarnib -0.021 | [6] 0.083 | [7] 0.043 | [8] 0

ENDOD1 (UniProt O94919)
inactive: lapatinib 0.002 | pictilisib -0.05 | crizotinib 0.082 | [1] 0.101 | duvelisib -0.081 | gandotinib -0.08 | tozasertib 0.023 | doramapimod -0.01 | bafetinib 0.011 | [2] -0.055 | nilotinib 0.108 | [3] 0.048 | dasatinib 0.015 | [4] -0.034 | [5] 0.025 | quisinostat 0.13 | tipifarnib -0.105 | [6] 0.021 | [7] -0.006 | [8] -0.03

EIF4EBP1 (UniProt Q13541)
inactive: lapatinib 0.072 | pictilisib 0.025 | crizotinib 0.01 | [1] 0.055 | duvelisib 0.06 | gandotinib -0.118 | tozasertib 0.074 | doramapimod 0.022 | bafetinib -0.017 | [2] -0.08 | nilotinib 0.02 | [3] 0.065 | dasatinib 0.005 | [4] 0.081 | [5] -0.089 | quisinostat -0.023 | tipifarnib 0.083 | [6] -0.02 | [7] -0.026 | [8] 0.023

EIF3G (UniProt O75821)
inactive: lapatinib -0.015 | pictilisib 0.019 | crizotinib 0.005 | [1] -0.021 | duvelisib 0.019 | gandotinib 0.009 | tozasertib 0.01 | doramapimod -0.019 | bafetinib 0.006 | [2] -0.004 | nilotinib 0 | [3] -0.008 | dasatinib -0.013 | [4] -0.006 | [5] -0.014 | quisinostat -0.023 | tipifarnib 0.012 | [6] -0.001 | [7] -0.01 | [8] 0.019

ENSA isoform 3 (UniProt O43768)
inactive: lapatinib 0.021 | pictilisib 0.02 | crizotinib 0.058 | [1] 0.103 | duvelisib 0.049 | gandotinib -0.042 | tozasertib -0.027 | doramapimod -0.068 | bafetinib 0.058 | [2] -0.103 | nilotinib -0.022 | [3] -0.011 | dasatinib 0.07 | [4] 0.013 | [5] -0.002 | quisinostat 0.051 | tipifarnib -0.002 | [6] -0.025 | [7] -0.029 | [8] 0.021

Source: the supplement of paper PMC10849652
